In paper PMC6902002, “Recognition and processing of branched DNA substrates by Slx1–Slx4 nuclease”:
No constants are given. Whether binding was seen depends on the method and setting. Some entries that bind do so weakly or less than the wild type.

Target: T1, Candida glabrata Slx1, wild type (Candida glabrata) (UniProt Q6FML9)
T1 sequence: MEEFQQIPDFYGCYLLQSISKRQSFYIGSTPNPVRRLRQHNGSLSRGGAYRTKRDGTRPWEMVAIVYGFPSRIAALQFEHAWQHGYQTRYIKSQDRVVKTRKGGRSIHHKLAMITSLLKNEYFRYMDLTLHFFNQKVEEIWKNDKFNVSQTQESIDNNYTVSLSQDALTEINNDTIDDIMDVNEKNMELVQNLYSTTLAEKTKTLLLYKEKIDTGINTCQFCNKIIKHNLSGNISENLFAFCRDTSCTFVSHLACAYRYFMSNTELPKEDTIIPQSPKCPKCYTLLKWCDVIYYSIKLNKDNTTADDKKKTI
Assay: co-purification; Cg-Slx1 (wild type or point substitution variant) purified as a complex with Cg-Slx4^CCD, as described earlier (ref. 21)

- binding: binds
B1: Candida glabrata Slx4 conserved C-terminal domain (residues 557-726) (domain or fragment, UniProt Q6FJQ6 557-726)
chain: LANIELTEEHEVLGNIDGQPGEELFAVVLSISNNLELLSSPGVDTHTKEKSPSLAELRKDLDKIGLKPVRLKSQIIENLASASQVVTVDESNQKKVGVTSKSEVFEFLTHLVKQEPDLLTRIYCFQPITMNDLINKLRNKDSFVDLIDDGTIREWTDKLGICIRSNNLKD
